67 sequences from PubChem BioAssay AID1347423 (Functional Genomics Laboratory (NCATS/FGL), 2020) can be followed below.

About 210 (0.4%) of roughly 52,000 sequences were called active.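 How the source made its calls: active means gene whose silencing raises cell survival under the drug, median off-target-corrected z-score across its silencing RNAs 2 or more; inactive means the rest.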 Some of the results follow.

A short description of this assay: Resistance to Poly (ADP-Ribose) Polymerase inhibitor: Gene Identification via Genome-wide siRNA Screen. The settings on record: mouse BRCA2 R2336H ES cells, olaparib, CellTiter-Glo viability; stronger effect = higher value. Summed up:
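Mouse BRCA2 R2336H ES cells were reverse-transfected with siRNA (20 nM final), treated at 48 h with 500 nM olaparib, and read by CellTiter-Glo after 72 h. Scores: MAD-based z per siRNA, median per gene, seed off-target correction.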
As to GGUCCACGGUUACUAAAAATT against Klrd1, the z-score is active: 2.45.

GCUCAGAAUGCAGGUCGUATT against Abpe: the z-score is inactive: -2.33. Then CCUUUUUAUCGUCUAUAUCTT against Nox1, with inactive: 0.541; and “CGUGUUAUCUCGUAUUGUUTT against 5930422O12Rik”, with inactive: -0.979. Then GGACCAAAAGAACAAUACGTT against Sncaip, with inactive: 1.13; and GGUUCUCAUCAUUUCAACUTT against Sh3bgrl, with inactive: 0.371; and CGCCCAGUGCAAUUUUUUCTT against Gm592, with inactive: -0.745. “GGUUUAUUCUUGCUACUUUTT against B830009D23Rik”: the z-score was inactive: -0.205. Then GGAUGUGAAACAUGCUUUUTT against Olfr1030, with inactive: 3.21. To GGUAAUGAGAUGUCAUUUCTT against Spock1 belongs inactive: 2.01. Regarding GCUCGAUGCGGAUGAAUAUTT against Lzic, the z-score is inactive: -0.914. Turning to GGACAUGAUUAAUGAGGUGTT against Calm3, the z-score is inactive: -2.64.

Turning to CCGAUUUCCACAUCUGUCATT against D11Wsu99e, the z-score was inactive: 0.623. In the case of GGAUCUCAGAUUUACUGUCTT against Dedd2, the z-score is inactive: 3.94. As for “GGAAAUUCAAGUCAGUGUUTT against C630049M13”, the z-score was inactive: 1.95. Then GGCCUAGAAACCUUGGUGUTT against Cyp2d10, with inactive: -1.12.

On to GGAUAUUCUCUAGUCUCCATT against Pelo, for which the z-score was inactive: -1.19. For GGUAGAUCCAACAAAACACTT against Vps54, the z-score is inactive: 1.19. Then GGACCAACAUAACCUCUACTT against BC037432, with inactive: 0.0137; and AUCAAGCAAGGGAACUCUGTT against Noto, with inactive: -1.19; and GCAAGACAGAACGUAUUAATT against Fem1c, with inactive: -0.521. As for CGUAUUAGAGAAGAUUACATT against Ckt2, the z-score is inactive: 0.297. To GGCGAUGAGUUUGAACUGCTT against Bcl2l1 belongs inactive: -1.64. Then GCCUGUUGGUACCAAAUGGTT against Unc5b, with inactive: -1.08; and GGGAAUGAGUCAGCUCUUUTT against Cd163, with inactive: -0.227; and GGACUCAUGAAAUCAAGAATT against D6Wsu116e, with inactive: 1.26. Then CGGACUAUUUGAAAUGGCUTT against Ppt2, with inactive: 1.54; and GGAACAAGGCUUUUUCCACTT against Olfr481, with inactive: -0.115. For the sequence GCACCCUCCACCAUUGUGATT against Sqstm1, the z-score is inactive: -1.69. Then CCCAACUGUCAAAUAAUCCTT against LOC219026, with inactive: -0.257; and GCUUUAUUGCUACAAAUUGTT against Mlr2, with inactive: 0.565. To “CCUUAGGAAACGAUCUUCATT against 5930412E23Rik” belongs inactive: 0.465. Then GCUUGUUUCUAUGAUUAAGTT against Phf10, with inactive: 0.263. As to GGAGAGUCAAGUCUUUUCUTT against Dnalc4, the z-score is inactive: 0.0704. Take GCCCUUAGAGAGAAUUUAUTT against Lmo2: the z-score was inactive: 1.52.

On to CGAUUGUCAGGAUCCAUUUTT against Vipr1, for which the z-score is inactive: 0.0543. Then “GGAGAGUGACAACAGCUUCTT against 1700037H04Rik”, with inactive: -0.847. To GGGAAAUUCAGUCUCAUUCTT against P2rx2 belongs inactive: 1.66; to GGAGGAUUAGUAAAUUCAATT against Ier2, inactive: -0.473; to GGUACAACUCUAAGAGAAGTT against Rpl39, inactive: -3.01. To GGAAGAUGGCACUGAGAUCTT against Itgae belongs inactive: 1.89; to GGCCACUUUGGCUGAAAUUTT against Tbr1, inactive: -2.65; to CCAUACAAGGGUGACAAUUTT against Olfr822, inactive: -1.9.

As to GGAGUAACAACACAACAUUTT against Mab21l1, the z-score was inactive: -1.15.

Take GCUGGAUACAUUGUGUUCUTT against Rnf44: the z-score was inactive: -0.432. For GGACUUUGAGAAGGUCGAUTT against Khk, the z-score is inactive: -1.16. Turning to GAUAAGUGCUUUCGUGUUUTT against Klrb1b, the z-score was inactive: 0.685. In the case of “GGUUAUGAGGCUUAAUAAATT against 2810423G08Rik”, the z-score is inactive: 1.54. For GCUAACUGCACUCCGAGAUTT against Ddef1, the z-score is inactive: 0.243. Regarding GCAACAUUUCUCGGAAAUUTT against Olfr1275, the z-score was inactive: -2.21. With GCUACUAUAUGCGUUUCUUTT against Fads2, the z-score is inactive: 1.88. To “GGAAAAUGUUUGGACUUUGTT against 5033428A16Rik” belongs inactive: 0.227; to GCAAUUGUUAACUCUGGGATT against Olfr1200, inactive: 1.63.

With GGAAAGCAUUGUUUUUUUGTT against Plekhk1, the z-score was inactive: 0.649. To “GGGUGUAUUGAGAAUCAACTT against 4930429A22Rik” belongs inactive: -0.554; to GCAGACCGAGUGAUCACCUTT against Cul4a, inactive: 0.129; to GCCACUCCUGGACACAAAATT against Ccnt2, inactive: -0.672. Then “GGAAAAAUCACCAGUAAAATT against 5730509K17Rik”, with inactive: 0.225; and CCAAACACUAUGUGACAAGTT against Trim8, with inactive: -0.17.

As to UGUUGGAUACUAGUCACAATT against Olfr1066, the z-score is inactive: -0.0355. To GGACUAUGCAGAUGCCUACTT against Cacnb3 belongs inactive: 0.398; to GGGAUAUGGUGUGAUCUUUTT against Cyp2b19, inactive: -0.905; to GGGCAGAAUGCCAGUGUACTT against Kif22, inactive: -1.61.

As for “GGCUACCCAUGCUACCUACTT against 4930517K23Rik”, the z-score is inactive: 0.572.

Consider GGGUCUUUGUACAGAUUGCTT against Olfr275, for which the z-score was inactive: 0.213. In the case of CGGAGCUCUAAAUGAACAUTT against Snai3, the z-score is inactive: 0.304. Then CCUCAACAUAUUCAAACAUTT against Tlr7, with inactive: 0.502.
